According to PubChem BioAssay AID445 (National Center for Advancing Translational Sciences (NCATS), 2006):
The other results are listed elsewhere or left out. Further columns of the screen follow, without active or inactive calls. The list favours compounds with an active or inconclusive main result. Potencies come from curve fits of mixed quality, noted in brackets.

Experiment: IkB Signaling
Settings: ABC-DLBCL IkBa-CBG/CBR dual luciferase ratio (green luciferase fused to IkBa over red control in OCI-Ly3 lymphoma cells), 4 h; measured here: control luc red channel unless noted
Method in brief: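 In this assay, an IκBα–CBG68 fusion accumulates when IKK-driven degradation is blocked; native CBR normalizes for cell number. OCI-Ly3 cells were treated 4 h with compound and doxycycline, then green and red light read after Chroma-Glo addition.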

Q: With `COc1ccc(N(C(=O)COc2c(C)cccc2C)S(=O)(=O)c2ccc(Cl)cc2)cc1` as the molecule, how does the AC50 read?
A: Its AC50 is 7.94 µM [falling, full curve].

Q: Which AC50 does the source give for `Cc1ccccc1C(=O)NCC(c1cccnc1)N1CCc2ccccc21` (stereo not drawn) here?
A: The AC50 was 39.8 µM [falling, single point].

Q: With `CCOC(=O)c1c(C)sc(-c2c(-c3ccc4c(c3)OCCO4)[nH]c3c2c(=O)[nH]c(=O)n3C)c1O` as the molecule, how does the AC50 read?
A: The AC50 was 20 µM [falling, single point].

Q: For `CCOC(=O)C1CCN(C(=O)c2cc3cc4cc(OC)ccc4nc3o2)CC1`, which AC50 is on record?
A: Its AC50 is 0.0316 µM [falling, full curve].

Q: Which AC50 does the source give for `Cc1ccc(-c2nnc(Nc3ccc(O)cc3)c3ccccc23)cc1S(=O)(=O)NCc1nc2ccccc2[nH]1` here?
A: Its AC50 is 3.98 µM [falling, partial curve].

Q: Which AC50 does the source give for `COc1cccc(-n2c(=O)c3sc4ccccc4c3n(CC(=O)Nc3ccc(F)cc3F)c2=O)c1` here?
A: Its AC50 is 6.31 µM [falling, partial curve].

Q: Which AC50 does the source give for `COc1cc(NC(=O)CSc2nc(C)c(C(=O)Nc3ccccc3)c(-c3ccc(OC)c(OC)c3)c2C#N)c(OC)cc1Cl` here?
A: The AC50 was 7.94 µM [falling, partial curve].

Q: With `CC(C)CN(CCCNC(=O)CN1C(=O)COc2ccc(S(=O)(=O)N3CCCCCC3)cc21)CC(C)C` as the molecule, how does the AC50 read?
A: The AC50 was 0.2 µM [rising, full curve].

Q: With `Cc1ccc(Cl)cc1N1CCN(CCCNc2ncnc3onc(-c4ccc(F)cc4)c23)CC1` as the molecule, how does the AC50 read?
A: The AC50 was 10 µM [falling, partial curve].

Q: Which AC50 does the source give for `CCOCCCn1c(=N)c(S(=O)(=O)c2ccc(C)cc2)cc2c(=O)n3ccccc3nc21` here?
A: The AC50 was 0.316 µM [rising, full curve].

Q: With `COc1ccc2nc3sc(C(=O)Nc4cc(Cl)c(OC)cc4OC)cc3cc2c1` as the molecule, how does the AC50 read?
A: Its AC50 is 12.6 µM [rising, partial curve] [measured here: IkB-luc green channel].

Q: For `CCN1CCN(Cc2c(O)ccc3c(=O)c(Oc4ccccc4Cl)c(C(F)(F)F)oc23)CC1`, which AC50 is on record?
A: The AC50 was 3.16 µM [falling, full curve, poor fit].

Q: Which AC50 does the source give for `CCOC(=O)c1c(C)oc2nc(C)nc(NCc3ccc(C)cc3)c12` here?
A: The AC50 was 0.0126 µM [falling, full curve].

Q: With `CCOCCCn1c(=N)c(C(=O)NCc2ccco2)cc2c(=O)n3ccccc3nc21` as the molecule, how does the AC50 read?
A: The AC50 was 0.158 µM [rising, full curve, poor fit].

Q: Which AC50 does the source give for `Cc1ccc(-c2nnc(Nc3ccc(Cl)cc3)c3ccccc23)cc1S(=O)(=O)N1CCOCC1` here?
A: The AC50 was 3.98 µM [falling, partial curve, poor fit].

Q: For `COc1ccc(CNC(=O)CCc2nc3cccnc3n2Cc2ccccc2)cc1`, which AC50 is on record?
A: The AC50 was 0.0251 µM [falling, full curve].

Q: For `Cc1cccc(N2CCN(C(=O)c3c(C)oc4nc(C)nc(N5CCCC5)c34)CC2C)c1` (stereo not drawn), which AC50 is on record?
A: Its AC50 is 0.0501 µM [falling, full curve, poor fit].

Q: Which AC50 does the source give for `Cc1ccc(-n2ncc3c(Nc4cccc(C)c4)ncnc32)cc1` here?
A: Its AC50 is 0.316 µM [rising, full curve].

Q: For `O=C(c1cc(-c2ccc(Cl)c(Cl)c2)on1)N1CCN(c2ccccc2)CC1`, which AC50 is on record?
A: The AC50 was 0.158 µM [falling, full curve].

Q: With `COc1ccc(NC(=O)c2ccc3c(c2)c(C)c(C)n3Cc2ccc(F)cc2)c(OC)c1` as the molecule, how does the AC50 read?
A: Its AC50 is 7.94 µM [rising, full curve, poor fit].

Q: With `COc1ccc(-c2nn3c(-c4ccc(C)cc4)nnc3c3ccccc23)cc1` as the molecule, how does the AC50 read?
A: Its AC50 is 39.8 µM [falling, single point].

Q: With `COc1cccc(CN2C(=O)c3ccccc3Sc3ccc(C(=O)NCCc4ccc(Cl)cc4)cc32)c1` as the molecule, how does the AC50 read?
A: Its AC50 is 12.6 µM [falling, partial curve].

Q: For `O=C(CSc1ncn(-c2ccccc2)n1)Nc1nc2c(s1)CCCC2`, which AC50 is on record?
A: Its AC50 is 25.1 µM [falling, single point].

Q: For `CCc1ccc(OCC(=O)N(Cc2ccco2)Cc2ccco2)cc1`, which AC50 is on record?
A: The AC50 was 31.6 µM [falling, single point].

Q: For `O=C(c1cc(-c2ccccc2)nc2ccccc12)N1CCN(c2ccccn2)CC1`, which AC50 is on record?
A: Its AC50 is 12.6 µM [falling, partial curve].

Q: With `COc1ccccc1NC(=O)CCn1nc(-c2ccccc2)c2ccccc2c1=O` as the molecule, how does the AC50 read?
A: Its AC50 is 31.6 µM [falling, partial curve].

Q: Which AC50 does the source give for `Cc1cc(C)cc(OCc2cc(=O)n3cc(C)sc3n2)c1` here?
A: The AC50 was 12.6 µM [falling, partial curve].

Q: With `CN(C(=O)c1ccc2c(c1)N(Cc1ccccc1F)C(=O)c1ccccc1S2)C1CCCCC1` as the molecule, how does the AC50 read?
A: The AC50 was 15.8 µM [falling, partial curve].

Q: Which AC50 does the source give for `CCCN1CCN(CCCNC(=O)c2ccc3c(c2)sc2nc(-c4ccc(C)cc4)cn23)CC1` here?
A: Its AC50 is 20 µM [falling, single point].

Q: Which AC50 does the source give for `COc1ccccc1N1CCN(c2nc3ccc(C)cc3nc2-n2nc(C)cc2C)CC1` here?
A: Its AC50 is 39.8 µM [falling, single point].

Q: For `CCOC(=O)c1c(C)n(-c2ccccc2)c2ccc(OC(=O)c3ccc(OCC)c(OCC)c3)cc12`, which AC50 is on record?
A: Its AC50 is 0.0398 µM [rising, full curve, poor fit].

Q: For `Cc1nn(-c2nc3ccccc3s2)c(N)c1-c1ccccc1`, which AC50 is on record?
A: Its AC50 is 0.0794 µM [falling, full curve, poor fit].

Q: Which AC50 does the source give for `O=C(C1CCCN(S(=O)(=O)c2ccccc2)C1)N1CCCc2ccccc21` (stereo not drawn) here?
A: Its AC50 is 31.6 µM [falling, single point].

Q: For `COc1ccc(-c2nnc(NC(=O)c3ccc(S(=O)(=O)N4COCC4(C)C)cc3)o2)cc1`, which AC50 is on record?
A: Its AC50 is 7.94 µM [falling, partial curve].

Q: Which AC50 does the source give for `COc1ccccc1-c1cc(NC(=O)COc2ccccc2Cl)n(-c2ccccc2)n1` here?
A: Its AC50 is 10 µM [rising, partial curve].

Q: For `Cc1ccc(C)c(CN2C(=O)c3ccccc3Sc3ccc(C(=O)NCc4cccs4)cc32)c1`, which AC50 is on record?
A: Its AC50 is 12.6 µM [falling, partial curve].

Q: For `COc1ccc(NC(=O)c2c(N)c(C(=O)c3ccc(C)cc3)n3ccccc23)cc1OC`, which AC50 is on record?
A: The AC50 was 1.58 µM [falling, partial curve].

Q: Which AC50 does the source give for `CCN1CCN(Cc2nc3cc(NC(=O)c4ccccc4[N+](=O)[O-])ccc3n2CC)CC1` here?
A: The AC50 was 31.6 µM [falling, single point].
